# Data: doi:10.1101/2022.01.20.477147
# These are yes or no findings as the source states them, for the method shown. In cells and extracts the contact can be indirect. These calls come from enrichment with a bait or labelling near it, and not all partners need be listed.
# Tests used:
# [1] = biological target: SARS-CoV-2 Nsp6, 2xStrep-tagged (SARS-CoV-2) (UniProt P0DTD1); assay: affinity purification with mass spectrometry
# [2] = biological target: SARS-CoV-2 Nsp8, 2xStrep-tagged (SARS-CoV-2) (UniProt P0DTD1); assay: affinity purification with mass spectrometry
Substance,binding [1],binding [2]
ATPase subunit ATP5B (from UniProt P06576 48-529),binds,binds
ATPase subunit ATP5A1 (from UniProt P25705 44-553),binds,binds
